Source: PMC9520879
These are yes or no findings as the source states them, for the method shown. In cells and extracts the contact can be indirect. Some results given as binding are weak or reduced against the parent protein; the word gives no strength.

Protein sequences, listed by entry. Tags and fused reporters are not part of them.
UniProt Q14258: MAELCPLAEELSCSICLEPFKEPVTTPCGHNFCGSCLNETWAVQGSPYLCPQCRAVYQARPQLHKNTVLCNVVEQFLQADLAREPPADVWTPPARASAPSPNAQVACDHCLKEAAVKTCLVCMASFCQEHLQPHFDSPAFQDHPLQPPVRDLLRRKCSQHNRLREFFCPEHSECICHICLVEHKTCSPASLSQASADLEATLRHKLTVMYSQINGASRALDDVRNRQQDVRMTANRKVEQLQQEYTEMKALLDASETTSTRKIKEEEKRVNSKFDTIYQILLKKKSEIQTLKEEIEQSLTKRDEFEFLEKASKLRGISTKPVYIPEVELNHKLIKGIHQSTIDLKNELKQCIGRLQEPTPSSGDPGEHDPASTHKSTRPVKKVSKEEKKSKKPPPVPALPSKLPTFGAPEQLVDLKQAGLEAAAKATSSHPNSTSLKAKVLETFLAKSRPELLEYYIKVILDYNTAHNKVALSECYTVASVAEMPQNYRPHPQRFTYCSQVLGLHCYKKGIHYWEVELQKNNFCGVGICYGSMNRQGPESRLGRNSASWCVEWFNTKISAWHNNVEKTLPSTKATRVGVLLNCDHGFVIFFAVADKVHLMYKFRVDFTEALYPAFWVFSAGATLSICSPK

Molecular target: T1, RPRD1B (regulation of nuclear pre-mRNA domain containing 1B) (human (in gastric cancer cell lines; endogenous or stably overexpressed not told)) (UniProt Q9NQG5)
T1 sequence: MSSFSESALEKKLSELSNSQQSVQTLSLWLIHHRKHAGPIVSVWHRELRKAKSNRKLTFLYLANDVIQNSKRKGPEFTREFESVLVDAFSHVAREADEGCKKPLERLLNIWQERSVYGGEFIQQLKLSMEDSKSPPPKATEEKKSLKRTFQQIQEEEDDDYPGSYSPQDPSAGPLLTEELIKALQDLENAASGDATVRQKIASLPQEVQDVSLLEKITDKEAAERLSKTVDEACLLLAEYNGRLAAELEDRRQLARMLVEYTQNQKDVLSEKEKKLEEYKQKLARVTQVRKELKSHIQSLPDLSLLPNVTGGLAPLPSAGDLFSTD
Experiment: co-IP; co-IP from gastric cancer cells; the precipitated protein, cell line and buffer are not told (no co-IP method in the methods section)

binding: binds
Substance: E3 ubiquitin ligase TRIM25 (from UniProt Q14258 1-630)
